# ± gives the standard deviation of the averaged measurements. Only a part is listed here, and it is no random draw. Small differences around the control level are noise.
# Sequences of proteins named here, by UniProt entry; tags and fusion partners are left off. A change or cut given only in a name is not applied to a line headed by its entry.
# UniProt Q13496: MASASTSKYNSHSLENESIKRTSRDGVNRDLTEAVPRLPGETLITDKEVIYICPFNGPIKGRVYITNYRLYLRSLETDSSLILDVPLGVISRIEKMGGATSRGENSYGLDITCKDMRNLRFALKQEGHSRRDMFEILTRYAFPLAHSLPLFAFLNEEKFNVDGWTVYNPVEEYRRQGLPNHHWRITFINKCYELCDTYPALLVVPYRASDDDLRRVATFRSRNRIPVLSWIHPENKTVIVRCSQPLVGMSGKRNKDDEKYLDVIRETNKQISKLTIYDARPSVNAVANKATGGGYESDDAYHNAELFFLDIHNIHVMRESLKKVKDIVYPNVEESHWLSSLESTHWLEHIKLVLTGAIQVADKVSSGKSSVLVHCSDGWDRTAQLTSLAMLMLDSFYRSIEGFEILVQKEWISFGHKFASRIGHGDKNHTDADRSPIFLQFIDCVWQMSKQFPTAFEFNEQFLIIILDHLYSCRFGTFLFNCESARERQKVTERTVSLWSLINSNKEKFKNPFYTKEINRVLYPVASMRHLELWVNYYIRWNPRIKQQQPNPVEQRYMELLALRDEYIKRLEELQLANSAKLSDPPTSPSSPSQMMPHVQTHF
# UniProt Q01105, whole entry: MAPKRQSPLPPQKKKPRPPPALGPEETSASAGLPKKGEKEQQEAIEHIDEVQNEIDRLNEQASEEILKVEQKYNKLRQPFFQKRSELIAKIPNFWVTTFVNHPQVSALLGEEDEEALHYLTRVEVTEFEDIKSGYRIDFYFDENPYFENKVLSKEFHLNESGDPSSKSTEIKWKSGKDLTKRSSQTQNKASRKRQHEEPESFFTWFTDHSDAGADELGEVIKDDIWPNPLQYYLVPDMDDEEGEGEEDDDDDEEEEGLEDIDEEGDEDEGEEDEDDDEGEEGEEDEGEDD
# UniProt Q03111: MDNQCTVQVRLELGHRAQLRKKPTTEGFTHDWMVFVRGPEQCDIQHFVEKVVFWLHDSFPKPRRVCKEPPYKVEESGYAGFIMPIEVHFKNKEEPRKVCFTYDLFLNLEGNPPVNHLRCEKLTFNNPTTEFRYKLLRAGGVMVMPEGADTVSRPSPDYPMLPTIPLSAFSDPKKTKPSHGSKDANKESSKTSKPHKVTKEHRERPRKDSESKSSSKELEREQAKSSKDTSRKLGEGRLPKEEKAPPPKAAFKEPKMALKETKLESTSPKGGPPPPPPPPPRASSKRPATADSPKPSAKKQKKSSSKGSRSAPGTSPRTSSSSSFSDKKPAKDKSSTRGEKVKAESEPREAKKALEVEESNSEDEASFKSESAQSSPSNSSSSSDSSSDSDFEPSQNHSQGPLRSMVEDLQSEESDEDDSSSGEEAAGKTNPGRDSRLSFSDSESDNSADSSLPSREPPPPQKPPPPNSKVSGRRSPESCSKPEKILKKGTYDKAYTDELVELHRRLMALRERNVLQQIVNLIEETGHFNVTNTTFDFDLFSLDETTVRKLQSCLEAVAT
# UniProt Q04759: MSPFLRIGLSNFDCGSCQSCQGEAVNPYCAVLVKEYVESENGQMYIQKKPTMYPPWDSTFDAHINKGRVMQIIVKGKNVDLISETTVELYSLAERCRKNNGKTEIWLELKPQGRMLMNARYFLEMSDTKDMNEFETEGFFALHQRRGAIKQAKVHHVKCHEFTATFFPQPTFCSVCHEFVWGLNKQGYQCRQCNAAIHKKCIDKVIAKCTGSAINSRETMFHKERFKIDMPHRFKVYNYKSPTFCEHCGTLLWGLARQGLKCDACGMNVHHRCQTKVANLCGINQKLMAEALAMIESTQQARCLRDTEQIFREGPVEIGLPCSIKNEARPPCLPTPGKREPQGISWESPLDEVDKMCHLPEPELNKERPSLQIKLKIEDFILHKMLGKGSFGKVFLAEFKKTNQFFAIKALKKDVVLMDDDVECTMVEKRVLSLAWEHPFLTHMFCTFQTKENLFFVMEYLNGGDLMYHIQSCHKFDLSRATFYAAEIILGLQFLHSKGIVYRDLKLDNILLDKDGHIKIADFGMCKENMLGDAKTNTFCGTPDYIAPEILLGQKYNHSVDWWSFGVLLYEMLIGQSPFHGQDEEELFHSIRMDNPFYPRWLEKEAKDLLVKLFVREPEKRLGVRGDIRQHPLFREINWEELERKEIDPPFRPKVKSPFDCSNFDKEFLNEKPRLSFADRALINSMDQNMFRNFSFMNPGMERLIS
# UniProt Q14141: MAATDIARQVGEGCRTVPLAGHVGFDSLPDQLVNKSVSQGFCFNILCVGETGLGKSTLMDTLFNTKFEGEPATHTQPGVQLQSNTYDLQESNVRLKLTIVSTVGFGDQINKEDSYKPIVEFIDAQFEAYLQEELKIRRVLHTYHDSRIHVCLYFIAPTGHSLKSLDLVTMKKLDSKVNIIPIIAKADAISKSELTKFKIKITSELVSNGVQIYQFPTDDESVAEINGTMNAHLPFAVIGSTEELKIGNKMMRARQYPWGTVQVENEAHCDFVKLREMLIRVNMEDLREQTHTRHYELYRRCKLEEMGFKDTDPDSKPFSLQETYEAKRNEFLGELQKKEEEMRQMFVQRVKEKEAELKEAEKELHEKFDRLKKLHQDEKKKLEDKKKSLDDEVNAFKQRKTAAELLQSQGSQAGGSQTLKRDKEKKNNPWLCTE
# UniProt Q08431: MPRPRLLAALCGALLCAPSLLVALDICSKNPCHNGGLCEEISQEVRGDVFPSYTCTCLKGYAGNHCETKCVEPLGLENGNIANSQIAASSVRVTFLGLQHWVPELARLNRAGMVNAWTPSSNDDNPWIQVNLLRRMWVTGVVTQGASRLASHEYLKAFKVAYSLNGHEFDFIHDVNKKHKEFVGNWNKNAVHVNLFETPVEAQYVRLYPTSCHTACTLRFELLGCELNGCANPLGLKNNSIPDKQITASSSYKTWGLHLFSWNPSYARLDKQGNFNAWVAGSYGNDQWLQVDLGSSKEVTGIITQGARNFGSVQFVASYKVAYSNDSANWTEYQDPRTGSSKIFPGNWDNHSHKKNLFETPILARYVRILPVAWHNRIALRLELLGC
# UniProt Q13029: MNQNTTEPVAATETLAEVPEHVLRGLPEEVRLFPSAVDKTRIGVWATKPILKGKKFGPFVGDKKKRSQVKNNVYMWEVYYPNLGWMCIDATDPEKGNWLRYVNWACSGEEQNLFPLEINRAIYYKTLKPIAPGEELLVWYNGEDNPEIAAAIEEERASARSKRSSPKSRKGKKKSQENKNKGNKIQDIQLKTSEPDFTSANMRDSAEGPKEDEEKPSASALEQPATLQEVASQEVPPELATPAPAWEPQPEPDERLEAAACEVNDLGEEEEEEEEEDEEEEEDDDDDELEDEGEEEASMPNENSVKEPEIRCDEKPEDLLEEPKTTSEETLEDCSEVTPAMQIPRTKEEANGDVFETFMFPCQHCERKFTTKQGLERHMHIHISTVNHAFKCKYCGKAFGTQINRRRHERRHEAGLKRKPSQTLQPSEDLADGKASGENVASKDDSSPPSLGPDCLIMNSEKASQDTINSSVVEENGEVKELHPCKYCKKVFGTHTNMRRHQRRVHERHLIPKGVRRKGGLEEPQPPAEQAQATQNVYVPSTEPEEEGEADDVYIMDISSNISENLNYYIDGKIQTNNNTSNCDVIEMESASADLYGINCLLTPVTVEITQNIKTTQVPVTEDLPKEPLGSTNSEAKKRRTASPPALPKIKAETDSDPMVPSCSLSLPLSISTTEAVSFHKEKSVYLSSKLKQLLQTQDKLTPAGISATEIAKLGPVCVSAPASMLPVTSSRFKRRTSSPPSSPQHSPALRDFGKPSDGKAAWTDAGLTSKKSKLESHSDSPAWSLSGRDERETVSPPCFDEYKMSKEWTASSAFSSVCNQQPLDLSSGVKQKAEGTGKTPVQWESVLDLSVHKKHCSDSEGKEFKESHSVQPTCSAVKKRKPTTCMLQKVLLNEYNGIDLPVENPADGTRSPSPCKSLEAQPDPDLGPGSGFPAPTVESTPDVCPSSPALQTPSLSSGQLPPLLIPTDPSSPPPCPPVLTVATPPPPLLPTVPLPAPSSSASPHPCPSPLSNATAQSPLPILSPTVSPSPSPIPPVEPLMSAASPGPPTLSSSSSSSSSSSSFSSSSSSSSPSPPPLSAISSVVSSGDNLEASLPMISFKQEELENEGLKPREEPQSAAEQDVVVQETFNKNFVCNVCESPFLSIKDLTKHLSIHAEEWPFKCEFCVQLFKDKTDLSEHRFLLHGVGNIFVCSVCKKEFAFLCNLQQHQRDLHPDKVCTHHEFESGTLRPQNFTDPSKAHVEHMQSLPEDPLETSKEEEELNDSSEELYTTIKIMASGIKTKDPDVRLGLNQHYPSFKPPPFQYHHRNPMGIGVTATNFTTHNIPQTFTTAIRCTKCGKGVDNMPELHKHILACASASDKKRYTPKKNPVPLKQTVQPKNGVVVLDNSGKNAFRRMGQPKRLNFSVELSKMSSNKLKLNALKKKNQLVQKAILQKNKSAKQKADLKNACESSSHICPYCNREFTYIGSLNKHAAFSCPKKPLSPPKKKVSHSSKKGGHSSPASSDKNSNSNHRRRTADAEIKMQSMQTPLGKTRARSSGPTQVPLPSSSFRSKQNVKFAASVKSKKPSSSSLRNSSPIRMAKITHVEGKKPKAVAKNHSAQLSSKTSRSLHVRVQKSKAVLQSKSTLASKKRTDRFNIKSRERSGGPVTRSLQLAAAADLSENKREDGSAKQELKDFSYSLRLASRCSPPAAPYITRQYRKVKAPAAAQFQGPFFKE
# UniProt Q02809: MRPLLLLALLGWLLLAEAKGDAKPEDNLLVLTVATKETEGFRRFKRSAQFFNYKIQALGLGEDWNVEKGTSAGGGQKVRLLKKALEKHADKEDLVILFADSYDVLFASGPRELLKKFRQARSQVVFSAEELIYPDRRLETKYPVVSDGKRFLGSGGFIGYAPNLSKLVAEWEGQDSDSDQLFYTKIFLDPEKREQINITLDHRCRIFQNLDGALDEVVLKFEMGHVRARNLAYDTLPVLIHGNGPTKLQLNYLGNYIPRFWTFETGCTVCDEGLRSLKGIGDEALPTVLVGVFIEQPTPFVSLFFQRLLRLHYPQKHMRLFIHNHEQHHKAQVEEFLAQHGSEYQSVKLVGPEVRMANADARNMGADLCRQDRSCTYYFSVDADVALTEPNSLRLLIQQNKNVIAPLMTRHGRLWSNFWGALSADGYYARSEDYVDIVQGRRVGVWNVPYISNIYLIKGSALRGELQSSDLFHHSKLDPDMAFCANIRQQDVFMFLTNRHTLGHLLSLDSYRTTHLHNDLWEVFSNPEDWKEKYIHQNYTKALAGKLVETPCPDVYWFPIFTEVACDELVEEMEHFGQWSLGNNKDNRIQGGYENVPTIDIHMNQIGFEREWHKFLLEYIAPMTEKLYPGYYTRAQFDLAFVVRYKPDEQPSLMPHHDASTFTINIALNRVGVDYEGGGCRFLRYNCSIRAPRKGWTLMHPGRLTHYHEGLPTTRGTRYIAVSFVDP
# UniProt Q06546: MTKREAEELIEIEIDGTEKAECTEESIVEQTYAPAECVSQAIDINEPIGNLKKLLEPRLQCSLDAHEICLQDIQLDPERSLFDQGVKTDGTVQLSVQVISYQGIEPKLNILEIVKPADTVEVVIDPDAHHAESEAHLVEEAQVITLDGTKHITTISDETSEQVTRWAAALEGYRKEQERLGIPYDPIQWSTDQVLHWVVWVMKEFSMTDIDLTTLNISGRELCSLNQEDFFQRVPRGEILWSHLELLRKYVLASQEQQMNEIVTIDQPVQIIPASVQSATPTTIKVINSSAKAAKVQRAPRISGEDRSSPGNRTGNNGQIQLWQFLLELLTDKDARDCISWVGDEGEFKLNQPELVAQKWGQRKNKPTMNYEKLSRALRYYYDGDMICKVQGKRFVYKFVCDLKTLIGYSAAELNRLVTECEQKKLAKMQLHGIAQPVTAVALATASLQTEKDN
# UniProt Q13546: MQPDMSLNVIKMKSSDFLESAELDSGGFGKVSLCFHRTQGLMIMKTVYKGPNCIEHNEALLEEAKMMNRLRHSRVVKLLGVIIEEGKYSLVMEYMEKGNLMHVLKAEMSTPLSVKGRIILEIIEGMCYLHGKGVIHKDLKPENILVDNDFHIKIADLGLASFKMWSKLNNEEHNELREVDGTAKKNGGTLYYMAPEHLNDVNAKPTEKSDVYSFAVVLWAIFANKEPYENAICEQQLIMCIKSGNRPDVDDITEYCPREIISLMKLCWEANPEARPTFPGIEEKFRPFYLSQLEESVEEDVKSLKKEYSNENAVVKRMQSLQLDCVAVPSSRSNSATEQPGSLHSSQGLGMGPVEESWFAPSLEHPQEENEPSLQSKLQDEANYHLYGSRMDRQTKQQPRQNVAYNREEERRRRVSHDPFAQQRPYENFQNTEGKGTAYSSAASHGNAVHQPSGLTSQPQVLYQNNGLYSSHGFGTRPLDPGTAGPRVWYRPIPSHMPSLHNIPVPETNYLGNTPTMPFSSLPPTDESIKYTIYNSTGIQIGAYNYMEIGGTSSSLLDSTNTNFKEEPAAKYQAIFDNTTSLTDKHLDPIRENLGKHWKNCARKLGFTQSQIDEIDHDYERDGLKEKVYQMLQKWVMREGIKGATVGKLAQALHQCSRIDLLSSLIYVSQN
# Compound: Nc1ncnc2c1ncn2[C@@H]1O[C@H](COP(=O)(O)OP(=O)(O)OP(=O)(O)O)[C@@H](O)[C@H]1O [adenosine triphosphate]
# Test: NP40-soluble protein abundance relative to vehicle (solubility fold change) (ratio); higher = more soluble protein in presence of ATP
# Conditions: concentration: 0.1mM
# How it was run: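 Values are fold changes against the detergent-processed vehicle, based on vsn-normalised intensities. Jurkat crude lysate was treated at eight concentrations from 0.1 to 10 mM (10 min at room temperature, then 3 min at 37 °C), solubilised with 0.8% NP40 and benzonase, ultracentrifuged and analysed by TMT-labelled LC-MS/MS over three independent experiments.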
row,Target,NP40-soluble protein abundance
1,NNT (UniProt Q13423),1.03 ± 0.05
2,MTM1 (UniProt Q13496),1.08 ± 0.1
3,UniProt Q04727 and related entries,0.993 ± 0.051
4,UniProt Q12888 and related entries,0.975 ± 0.011
5,UniProt Q01105-2,0.892 ± 0.079
6,MRPL49 (UniProt Q13405),0.918 ± 0.13
7,MLLT1 (UniProt Q03111),1.01 ± 0.033
8,ECH1 (UniProt Q13011),1 ± 0.055
9,PRKCQ (UniProt Q04759),1.08 ± 0.099

# Same assay, conditions: concentration: 0.5mM
row,Target,NP40-soluble protein abundance
1,UniProt Q04726-3|Q04726-7|H0YKT5 and related entries,1.01 ± 0.073
2,UniProt Q14141,1.01 ± 0.087
3,CDC20 (UniProt Q12834),1.04 ± 0.029
4,MFGE8 (UniProt Q08431),0.951 ± 0.047
5,UniProt Q02750,1.02 ± 0.036
6,UniProt Q13029 and related entries,1.15 ± 0.061
7,HNRNPA0 (UniProt Q13151),1.06 ± 0.053
8,UniProt Q02809 and related entries,1.07 ± 0.022
9,RPL6 (UniProt Q02878),0.99 ± 0.075
10,UniProt Q13277 and related entries,0.972 ± 0.023
11,UniProt Q13884 and related entries,1.02 ± 0.12
12,SOX4 (UniProt Q06945),0.952 ± 0.046
13,XRCC4 (UniProt Q13426),1.05 ± 0.047
14,UniProt Q13416,0.978 ± 0.081
15,DHODH (UniProt Q02127),1.04 ± 0.067
16,MGAT2 (UniProt Q10469),0.995 ± 0.045
17,MBTD1 (UniProt Q05BQ5),1.07 ± 0.1
18,TAF10 (UniProt Q12962),1.068 ± 0.0054
19,TRIM26 (UniProt Q12899),0.901 ± 0.048

row,Target,NP40-soluble protein abundance
1,GABPA (UniProt Q06546),1.01 ± 0.022
2,SLC39A6 (UniProt Q13433),0.867 ± 0.074
3,SSRP1 (UniProt Q08945),0.981 ± 0.013
4,UniProt Q13905 and related entries,0.98 ± 0.017
5,HSPA14 (UniProt Q0VDF9),1.02 ± 0.044
6,PLAUR (UniProt Q03405),1.1 ± 0.17
7,SNTB2 (UniProt Q13425),1 ± 0.064
8,RIPK1 (UniProt Q13546),1.04 ± 0.074
9,DR1 (UniProt Q01658),0.947 ± 0.34
10,NNT (UniProt Q13423),1.03 ± 0.037
11,MTM1 (UniProt Q13496),1.06 ± 0.074
12,UniProt Q04727 and related entries,0.951 ± 0.072
13,UniProt Q12888 and related entries,0.967 ± 0.041
14,UniProt Q01105-2,0.836 ± 0.033
15,MRPL49 (UniProt Q13405),0.961 ± 0.16
16,MLLT1 (UniProt Q03111),0.972 ± 0.038
17,ECH1 (UniProt Q13011),1.02 ± 0.044
18,PRKCQ (UniProt Q04759),1.09 ± 0.093
